# From EP0139627A1, “Process for the preparation of 5,10-dihydro-1H-dibenzo [B,E] [1,4] diazepin-11-ones substituted in position 5” (ARZNEIMITTELWERK DRESDEN GmbH, priority 1983, dated 1985)
# At least one read-out could not be matched to a standard name with certainty.
# Tested on: Größe der Pupille
# Experiment: Effect on pupil size (mydriasis, method of Pulewka)
# Conditions: ratio of mouse mydriasis ED3-fach to rat immobilisation ulcer ED50
row,Structure (SMILES),Quotient Mydriasis ED3-fach / Ulkushemmung ED50 (Immobilisationsulkus)
1,"O=C1Nc2cc(Cl)ccc2N(C(=O)CN(CCO)CCO)c2ccccc21 [A, 8-Chlor-5,10-dihydro-5-[bis-(2-hydroxyäthyl)amino-acetyl]-11H-dibenzo[b,e] [1,4]diazepin-11-on]",5
2,"O=C1Nc2ccccc2N(C(=O)CN(CCO)CCO)c2ccccc21 [B, 5,10-Dihydro-5-[bis-(2-hydroxyäthyl) -aminoacetyl]-11H-dibenzo[b,e][1,4] diazepin-11-on]",4
3,"O=C1Nc2ccccc2N(C(=O)CN2CCN(C(=O)c3ccco3)CC2)c2ccccc21 [C, 5,10-Dihydro-5-(2-{4-[(2-furanyl)-carbonyl] -1-piperazinyl}-acetyl)-11H-dibenzo[b,e] [1,4]diazepin-11-on]",5
4,"CN1C(=O)c2ccccc2N(C(=O)CN2CCN(C(=O)c3ccco3)CC2)c2ccc(Cl)cc21 [D, 8-Chlor-5, 10-dihydro-5-(2-{4-[(2-furanyl)-carbonyl]-1-piperazinyl}-acetyl)-10-methyl-11H-dibenzolbenzo[b,e][1,4]-diazepin-11-on]",10
5,"CN1C(=O)c2ccccc2N(C(=O)CN(CCO)CCO)c2ccccc21 [E, 5,10-Dihydro-10-methyl-5-[bis-{2-hydroxyäthyl)-amino-acetyl]-11H-dibenzo[b,e] [1,4]diazepin-11-on]","3,5"
